According to US20210363214A1 (University of Washington, published 2021):
These are yes or no findings as the source states them, for the method shown. Some binding calls cover weakened binding; strength is not graded here.

Assays:
[1] = molecular target: TMHC4_R; assay: crystal structure at 3.9 A; homotetramer
[2] = molecular target: TMHC4_R; assay: AUC in detergent solution; self-association to homotetramer
[3] = molecular target: TMHC2_E (elongated); assay: AUC in detergent solution (C8E5); self-association to homodimer
[4] = molecular target: TMHC2_E (elongated); assay: crystal structure; homodimer
[5] = molecular target: TMHC2_E (elongated); assay: crystal structure at 2.95 A; homodimer
[6] = molecular target: TMHC2_E (elongated); assay: SDS-PAGE of purified protein; self-association
[7] = molecular target: TMHC2_E (elongated); assay: AUC sedimentation equilibrium at three rotor speeds; self-association to homodimer

Measured: binding

B1: TMHC4_R (designed binder, not shown: small tags and cut ends)
chain: MSKDTEDSRKIWRTIMLLLVFAILLSAIIWYQITTNPDTSQIATLLSMQLLLIALMLVVIALLLSRQTEQVAESIRRDVSALAYVMLGLLLSLLNRLSLAAEAYKKAIELDPNDALAWLLLGSVLEKLKRLDEAAEAYKKAIELKPNDASAWKELGKVLEKLGRLDEAAEAYKKAIELDPEDAEAWKELGKVLEKLGRLDEAAEAYKKAIELAND
binds: [1] | [2]

B2: TMHC2_E (elongated) (designed binder, not shown: small tags and cut ends)
chain: MTRTEIIRELERSLRLQLVLAIFLLALLIVLLWLLQQLKELLRELERLQREGSSDEDVRELLREIKELVENIVYLVIIIMVLVLVIIALAVTQKYLVEELKRQD
binds: [3] | [4] | [5] | [6] | [7]
